The record followed here is patent US20080051454A1, “Compositions and methods for transient receptor potential vanilloid (TRPV) channel mediated treatments” (The Board of Trustees Operating Michigan State University, priority 2006, published 2008).

The test system of the assay is Wistar rats (Con-NS, Con-HS, Cap-NS, Cap-HS). The experiment in a line: Natriuretic, diuretic and depressor effects of i.v. diuretics in control and capsaicin-pretreated rats on normal or high sodium diet. Format: in vivo, rat. The conditions noted are these: intravenous. The method, then:
(a) Urine flow rate. (b) Urine sodium excretion. […] (c) Mean arterial pressure. […] Vehicle; trichlormethiazide.
(a) Urine flow rate. (b) Urine sodium excretion. […] (c) Mean arterial pressure.
(a) Urine flow rate. (b) Urine sodium excretion. […] (c) Mean arterial pressure. […] Vehicle; amiloride.
Design and methods Neonatal Wistar rats were treated with capsaicin or vehicle. Seven-week-old male rats were treated for 2 weeks with: vehicle plus a normal (Con-NS) or high (Con-HS) sodium diet, and capsaicin pretreatment plus a normal (Cap-NS) or high (Cap-HS) sodium diet. Mean arterial pressure (MAP), renal excretory function, and protein expression determined by Western blot were performed.

Consider `NS(=O)(=O)c1cc(C(=O)O)c(NCc2ccco2)cc1Cl` [furosemide], for which the “urine flow / urine sodium excretion (words)” value is on record as “significantly increased”. For the setting “listed as Furosemide”, the “urine flow / urine sodium excretion (words)” value was “increased”.
